These are yes or no findings as the source states them, for the method shown. In cells and extracts the contact can be indirect. A result given as binding can be weak or reduced; the word gives no strength. Tags and fused reporters may be left off the sequences shown.

In the assay the target is YC–TON1 (TONNEAU1 fused to the C-terminal half of YFP). As to the kind of experiment: split reporter; BiFC: YN and YC fusions transiently co-expressed in N. benthamiana leaves by Agrobacterium infiltration; YFP fluorescence by confocal imaging with identical laser settings.

B1: YN–TRM1 (TON1 RECRUITMENT MOTIF1 fused to the N-terminal half of YFP) (protein, UniProt Q9S823 1-905)
chain: MSAKLLYNLSDENPNLNKQFGCMNGIFQVFYRQHCPATPVTVSGGAEKSLPPGERRGSVGETNMESDKETERSSTKKKKSAAKEKHRVSFESSSRPSFSSSPRSSSFSSAEVSTTASQFDQPGENLIREQPNGGLMMPYDLKELVKGSINREIRTRGEEASFTQQQQPISARSSMLLLKESSLRSPCRSSNEWNEGRGAAMKFKESHRLSYDEREMRNNGFRVGSKLKETPRLSLDSRSNSFRSPRADAARSSCPEEPATMTHRRSSSSVVAKLMGLEVIADNSDTEQRRENRFCDSPRPMSRVEPTALQRSRSVDSIKRIPASAASKFPMEPAPWKQMKAGDSALTVYGEIQKRLTQLEFKKSGKDLRALKQILEAMEKTQQLIDESRDDGTLSTTTLMQRTHKPVSAATSPARNFKSSSIVVMKSAAPVSTSPLPQNVTLPNVKVGNSRQTRKVTSGKQNAMDLTPRPGLYKGQLDSTKSNSPKTVRSRQALAADAGSMTKSGRSQQHSVSPRTQPKKLGFEKQTRPTTPKSEPGKRQLGRQQTEVASPRRKQMIKPHSTLQQPDDRLSDARSDLRSLRSDSNISLGSNVDIEVTSRHRLERNCDFPEQHTPKQRSPDFGIKQDRPSLKPLKVTVEQPSPVSVLDAVFDEEDSPSPVRKISLSFKEEDALRSEESEWINKPTSFCRSVPFPQSNRGPMKPSSDHFECSPEEGADFKSGNHKYILEILLASGILRDLEYSMISFQLHQTRLPINPGLFFILEQNKASNVTLPDNKHRGRGFRQQQTNPTETIRRKLVFDTVNEILARKFTAEGCIKPRLIANPLKKLEKISKEEQLLQTLCSEIDRLQQNNSNCILEDDEEDIIWEDLQSQSMNLKEFEGETPGIVLDIERMIFRDLVNEVCFC
On to B1, for which the binding result is reported as “binds”.

The values are drawn from article PMC6322583.
